Here are results for one substance from article doi:10.1101/785527.

Amino acid sequences for entries named in this document (tags omitted).
UniProt P25106: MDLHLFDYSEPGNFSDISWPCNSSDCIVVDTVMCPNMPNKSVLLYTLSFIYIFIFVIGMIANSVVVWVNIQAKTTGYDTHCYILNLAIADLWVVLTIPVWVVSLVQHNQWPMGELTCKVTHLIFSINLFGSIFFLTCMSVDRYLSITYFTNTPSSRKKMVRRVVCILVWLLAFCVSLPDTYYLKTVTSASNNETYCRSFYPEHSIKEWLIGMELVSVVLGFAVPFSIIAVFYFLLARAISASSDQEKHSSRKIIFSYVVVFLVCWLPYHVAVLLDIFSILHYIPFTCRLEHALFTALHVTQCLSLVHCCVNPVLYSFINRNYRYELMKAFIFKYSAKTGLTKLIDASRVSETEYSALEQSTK
UniProt P29067: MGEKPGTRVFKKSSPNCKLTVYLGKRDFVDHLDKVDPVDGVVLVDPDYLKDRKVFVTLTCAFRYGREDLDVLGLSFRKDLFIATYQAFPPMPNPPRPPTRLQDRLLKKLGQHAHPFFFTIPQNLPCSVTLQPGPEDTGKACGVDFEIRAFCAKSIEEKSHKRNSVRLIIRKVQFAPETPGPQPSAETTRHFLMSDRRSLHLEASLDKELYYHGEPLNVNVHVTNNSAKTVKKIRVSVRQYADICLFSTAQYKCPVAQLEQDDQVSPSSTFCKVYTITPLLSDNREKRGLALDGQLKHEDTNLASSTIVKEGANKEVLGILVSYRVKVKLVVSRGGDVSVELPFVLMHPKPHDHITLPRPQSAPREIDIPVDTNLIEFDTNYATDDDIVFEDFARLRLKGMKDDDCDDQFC

This assay deals with CXCR7 (atypical chemokine receptor 3, ACKR3), wild type, FLAG-tagged (human) (UniProt P25106). Nature of the assay: co-IP.

Results are given in words; binding and its absence hold for the method and conditions named. Binding seen in cells or lysates may run through a third protein. Some binding calls cover weakened binding; strength is not graded here.

“β-arrestin 2 expressed in HEK-293 cells (from UniProt P29067 1-410)”: the binding entry is “binds”.
